The source of these data is PMC6802665.

By UniProt entry, the sequences of proteins in these tests, tags left out.
UniProt P04792: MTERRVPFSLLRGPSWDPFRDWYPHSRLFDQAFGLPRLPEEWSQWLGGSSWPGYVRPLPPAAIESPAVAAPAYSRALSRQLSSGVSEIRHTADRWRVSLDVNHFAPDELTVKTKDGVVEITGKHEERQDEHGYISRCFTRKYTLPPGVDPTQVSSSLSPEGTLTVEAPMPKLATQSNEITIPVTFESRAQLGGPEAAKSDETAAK
UniProt P14602: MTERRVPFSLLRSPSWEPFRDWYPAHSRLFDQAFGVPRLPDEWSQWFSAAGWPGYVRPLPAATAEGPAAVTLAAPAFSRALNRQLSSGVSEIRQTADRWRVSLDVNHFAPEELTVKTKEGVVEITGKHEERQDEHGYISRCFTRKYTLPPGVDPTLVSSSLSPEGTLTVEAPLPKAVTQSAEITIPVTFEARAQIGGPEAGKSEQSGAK
UniProt P08047: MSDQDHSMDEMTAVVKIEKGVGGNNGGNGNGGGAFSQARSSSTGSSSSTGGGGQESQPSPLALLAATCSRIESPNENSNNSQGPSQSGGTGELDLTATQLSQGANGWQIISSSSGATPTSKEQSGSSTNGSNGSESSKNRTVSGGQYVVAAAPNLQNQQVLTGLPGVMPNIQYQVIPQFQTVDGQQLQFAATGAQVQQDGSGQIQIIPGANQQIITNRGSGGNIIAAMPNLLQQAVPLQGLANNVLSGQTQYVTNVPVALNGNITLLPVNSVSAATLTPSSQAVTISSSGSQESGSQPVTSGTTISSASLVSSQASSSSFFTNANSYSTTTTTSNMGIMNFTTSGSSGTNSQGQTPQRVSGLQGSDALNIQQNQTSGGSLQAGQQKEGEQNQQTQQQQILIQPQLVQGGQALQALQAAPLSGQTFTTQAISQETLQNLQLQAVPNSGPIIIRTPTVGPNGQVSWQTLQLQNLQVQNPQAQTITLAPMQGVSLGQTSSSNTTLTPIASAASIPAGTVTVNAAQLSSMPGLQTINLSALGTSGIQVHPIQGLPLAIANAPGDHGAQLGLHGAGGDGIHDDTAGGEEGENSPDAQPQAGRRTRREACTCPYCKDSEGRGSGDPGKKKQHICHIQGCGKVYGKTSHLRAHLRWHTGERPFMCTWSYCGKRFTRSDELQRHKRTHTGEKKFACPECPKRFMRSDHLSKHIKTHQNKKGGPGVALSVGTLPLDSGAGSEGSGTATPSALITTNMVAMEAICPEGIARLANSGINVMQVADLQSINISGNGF
UniProt Q9UER7: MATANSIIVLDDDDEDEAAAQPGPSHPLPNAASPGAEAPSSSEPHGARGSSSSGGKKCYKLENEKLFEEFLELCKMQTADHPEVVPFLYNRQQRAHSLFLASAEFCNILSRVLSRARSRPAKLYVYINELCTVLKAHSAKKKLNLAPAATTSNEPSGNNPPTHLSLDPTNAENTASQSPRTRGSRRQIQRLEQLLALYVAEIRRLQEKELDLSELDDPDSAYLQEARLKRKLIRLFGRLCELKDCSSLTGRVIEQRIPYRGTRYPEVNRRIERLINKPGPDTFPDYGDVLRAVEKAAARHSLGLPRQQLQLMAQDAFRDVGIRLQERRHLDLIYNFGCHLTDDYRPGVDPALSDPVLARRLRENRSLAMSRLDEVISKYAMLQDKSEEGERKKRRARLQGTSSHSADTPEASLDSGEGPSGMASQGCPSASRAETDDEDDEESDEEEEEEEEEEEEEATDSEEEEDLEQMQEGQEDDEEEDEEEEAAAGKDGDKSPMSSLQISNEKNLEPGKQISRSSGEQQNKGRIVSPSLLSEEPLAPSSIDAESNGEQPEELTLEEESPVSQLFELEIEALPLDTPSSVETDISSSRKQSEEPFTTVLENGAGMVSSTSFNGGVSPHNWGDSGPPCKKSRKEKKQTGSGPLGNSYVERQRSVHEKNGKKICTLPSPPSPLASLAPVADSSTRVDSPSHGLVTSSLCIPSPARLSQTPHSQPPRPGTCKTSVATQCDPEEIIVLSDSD
UniProt O35613: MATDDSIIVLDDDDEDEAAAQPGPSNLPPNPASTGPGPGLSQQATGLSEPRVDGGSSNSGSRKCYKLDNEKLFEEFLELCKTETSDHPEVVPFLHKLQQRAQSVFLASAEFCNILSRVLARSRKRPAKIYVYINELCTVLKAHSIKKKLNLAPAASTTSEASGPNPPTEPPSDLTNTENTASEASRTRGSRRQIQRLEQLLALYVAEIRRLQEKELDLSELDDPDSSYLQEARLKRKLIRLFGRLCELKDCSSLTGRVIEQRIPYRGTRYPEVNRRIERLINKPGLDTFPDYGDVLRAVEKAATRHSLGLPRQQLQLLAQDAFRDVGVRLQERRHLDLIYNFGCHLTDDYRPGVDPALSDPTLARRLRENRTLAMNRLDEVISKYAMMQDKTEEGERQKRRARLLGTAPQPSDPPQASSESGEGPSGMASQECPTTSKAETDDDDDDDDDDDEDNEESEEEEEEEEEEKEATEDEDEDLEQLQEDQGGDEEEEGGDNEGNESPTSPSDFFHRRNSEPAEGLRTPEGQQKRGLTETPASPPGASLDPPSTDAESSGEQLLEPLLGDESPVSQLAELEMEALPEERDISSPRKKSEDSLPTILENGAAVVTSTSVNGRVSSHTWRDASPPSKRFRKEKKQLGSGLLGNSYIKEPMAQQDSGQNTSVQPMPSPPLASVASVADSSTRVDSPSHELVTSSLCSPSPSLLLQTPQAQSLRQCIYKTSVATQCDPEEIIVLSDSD
UniProt P40763: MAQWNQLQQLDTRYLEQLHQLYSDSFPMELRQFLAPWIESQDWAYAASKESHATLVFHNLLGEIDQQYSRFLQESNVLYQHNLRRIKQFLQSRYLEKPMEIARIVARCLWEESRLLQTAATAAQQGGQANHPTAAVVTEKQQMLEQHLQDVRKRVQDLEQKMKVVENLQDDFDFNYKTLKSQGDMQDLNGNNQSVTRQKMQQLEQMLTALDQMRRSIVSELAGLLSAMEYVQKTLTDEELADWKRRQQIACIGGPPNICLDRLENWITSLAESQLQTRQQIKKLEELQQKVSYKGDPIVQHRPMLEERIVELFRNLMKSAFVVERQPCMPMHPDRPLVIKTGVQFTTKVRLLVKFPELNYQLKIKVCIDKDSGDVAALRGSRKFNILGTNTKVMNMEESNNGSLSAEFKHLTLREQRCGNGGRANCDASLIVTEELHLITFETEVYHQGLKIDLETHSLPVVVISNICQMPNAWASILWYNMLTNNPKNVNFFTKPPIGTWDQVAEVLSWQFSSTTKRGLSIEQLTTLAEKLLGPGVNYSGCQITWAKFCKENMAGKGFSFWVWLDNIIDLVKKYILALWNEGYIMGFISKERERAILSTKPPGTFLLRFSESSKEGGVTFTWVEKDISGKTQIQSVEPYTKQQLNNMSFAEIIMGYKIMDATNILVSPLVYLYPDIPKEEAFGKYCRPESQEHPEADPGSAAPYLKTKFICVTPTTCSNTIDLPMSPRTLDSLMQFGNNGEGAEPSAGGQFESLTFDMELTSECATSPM
UniProt P42227: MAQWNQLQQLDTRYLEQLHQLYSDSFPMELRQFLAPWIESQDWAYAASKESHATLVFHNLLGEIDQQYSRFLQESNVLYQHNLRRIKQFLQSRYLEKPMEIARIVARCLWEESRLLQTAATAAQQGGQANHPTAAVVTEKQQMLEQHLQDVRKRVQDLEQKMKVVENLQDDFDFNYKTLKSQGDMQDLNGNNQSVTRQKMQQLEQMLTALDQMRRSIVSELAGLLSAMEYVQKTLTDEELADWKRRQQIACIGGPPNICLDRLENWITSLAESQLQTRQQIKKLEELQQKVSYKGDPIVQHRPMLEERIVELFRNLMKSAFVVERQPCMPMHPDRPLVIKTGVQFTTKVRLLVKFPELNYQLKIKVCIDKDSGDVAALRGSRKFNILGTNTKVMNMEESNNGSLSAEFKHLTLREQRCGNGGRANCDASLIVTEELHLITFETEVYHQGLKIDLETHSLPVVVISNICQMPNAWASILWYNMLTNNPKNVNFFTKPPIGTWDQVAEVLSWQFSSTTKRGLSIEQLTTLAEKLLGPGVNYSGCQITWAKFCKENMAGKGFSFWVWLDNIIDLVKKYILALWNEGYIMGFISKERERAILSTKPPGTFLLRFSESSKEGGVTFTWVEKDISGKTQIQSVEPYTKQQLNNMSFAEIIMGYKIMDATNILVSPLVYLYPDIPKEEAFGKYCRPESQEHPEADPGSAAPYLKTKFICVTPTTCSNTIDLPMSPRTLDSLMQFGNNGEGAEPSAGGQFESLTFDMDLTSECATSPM

The target in assay [1] is heat shock protein 27 (HSP27), human (human (endogenous in A375 and MiaPaCa-2)) (UniProt P04792). In words: co-IP.
Assay [2] deals with heat shock protein 25 (HSP25), mouse (mouse) (UniProt P14602). In words: co-IP.

No constants are given. Whether binding was seen depends on the method and setting. In cells and extracts the contact can be indirect. Some results given as binding are weak or reduced against the parent protein; the word gives no strength.

Consider “Sp1 transcription factor, human (from UniProt P08047 1-785)”, for which the binding result in assay [1] was “binds”.
The same measure, in the same setting: the entry for “death domain-associated protein (Daxx), human (from UniProt Q9UER7 1-740)” is “binds”.
For the substance “death domain-associated protein (Daxx), mouse (from UniProt O35613 1-739)”, in assay [2], the binding entry is recorded as “no binding”.
In the case of “signal transducer and activator of transcription 3 (stat3), human (from UniProt P40763 1-770)”, the binding entry in assay [1] is given as “binds”.
Turning to “signal transducer and activator of transcription 3 (stat3), mouse (from UniProt P42227 1-770)”, in assay [2], the binding result is recorded as “binds”.
